Test results taken from PubChem BioAssay AID1347426 (Functional Genomics Laboratory (NCATS/FGL), 2020).
Hit rate of the full screen: of about 31,000 sequences, about 1,400 (4.5%) were called active.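 The calls were made as follows: active = median seed-adjusted z-score above 1 or below -1; inactive = the rest.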 This is one part of the list.

Test: Novel Modifiers of Survival Motor Neuron (SMN) Protein: Gene Identification via Genome-wide siRNA Screen
Conditions: HEK293T SMN2-luciferase reporter, siRNA knockdown, 72 h; actives lie on both sides
Procedure, shortened: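 Each of three siRNAs per gene is reverse-transfected (1 pmol) into reporter HEK293T cells whose luciferase output tracks SMN protein level. After 72 h culture, ONE-Glo luminescence is control-normalized, log10-transformed and MAD-standardized; Common Seed Analysis deprioritizes seed-driven hits.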

Sequence | median seed-adjusted z-score
CCAUCGUGAUAUAUUUCGATT against PDE11A | inactive: 0
AGCGGUUCGUUAUCCCAUUTT against POLE3 | inactive: -0.0612
GGAUCUCAUGAAAAAGUUUTT against CBR3 | inactive: 0.057
CCUUCAACAUGAACUUUAUTT against HS6ST2 | inactive: 0
GCGUCGUGGUCAUGAACAATT against PIP5K1C | inactive: -0.13
GGAAGCCGUUAGAAGGUUATT against TAF11 | inactive: -0.848
GGCUCAGUAUGGACCUCAATT against ARID1B | inactive: 0.108
UCAACACCGUCUACAUUUATT against SVOPL | inactive: 0.439
AGACAUUAAUAUUGCGUGUTT against ACBD7 | inactive: -0.542
GGAGACUCAUUGCAAGAUUTT against CNKSR2 | inactive: -0.0536
UACCUGAGCUUACAAAUUUTT against ESRRB | inactive: -0.611
AGAUAAUCACCGCACCGUUTT against FUT6 | inactive: 0.282
GGGCAGUCUUUGCACAUCATT against IKBKB | inactive: 0.0896
CGAGGGAUCCUAACUCUCATT against ACTG2 | inactive: 0.157
GACUAGCUGCUGAUAAGAATT against CKAP5 | active: -1.87
GUGCAUCUCUGGUAACUGUTT against TRPV3 | inactive: -0.228
GGAAUUCGACUGGAACAUUTT against NUF2 | inactive: -0.658
CCAUGACAAUCAACGAGGATT against AMY2A | inactive: -0.266
GUCAGAGACAGAUUUGAUATT against RHCE | inactive: 0.488
GGUUUUGGAAGUAAAGUUATT against PARK7 | inactive: -0.357
CACUGAUUAUGGGAUAUUUTT against LYZ | inactive: -0.0538
GAGCAAAGCUGAACGUGAATT against UST | inactive: 0.265
GAACCAACUCGGCCUCUAUTT against HYAL3 | inactive: 0

Sequence | median seed-adjusted z-score
ACAUCGUCCUCAUGACUAATT against NT5C1A | inactive: -0.448
GGUAUUUGAUAGCAGUUGATT against ADAL | inactive: 0.145
GGAUGAUAGACCUACUGGATT against INO80 | inactive: 0.0546
GAUCCCUGCUGUCAUCUUUTT against KCNK10 | inactive: 0.239
GAUUAUUGAGCAUAAGAUUTT against ZNF277 | inactive: -0.0374
AGAAGAACCCGAACAAAGATT against EN2 | inactive: 0.319
UGAGCGAGUUGGUCAAGAUTT against MAP1LC3A | inactive: 0
AAAUCGAUCAGAUCAACAATT against CDC2L1 | active: -1.14
GAACUUGACCAGUUAGACUTT against GTF3C3 | inactive: 0.21
GUGCAUGUAUGAAGCCGAATT against NDUFB10 | inactive: -0.39
GAUGGAAACAUUGAAUAUATT against GTPBP2 | inactive: -0.166
GAACUGUGCCGACUCCACATT against ATP6V0E1 | inactive: -0.0658
CCUGCAGAAUUAUAUCUUATT against TXNDC13 | inactive: 0.365
GCCCAUCACAAUCCAGGUATT against PLXND1 | inactive: -0.064
GGAUCAUUCGAAACGAGCATT against CDC25B | inactive: -0.0158
CGCCGAAUCAUGUCGAUGATT against NKX2-1 | inactive: 0.185
GAGUAUACUCUACAGCUAATT against IL12RB2 | inactive: 0.368
CAAUGAUAUUGGUAGAAAUTT against PKIB | inactive: 0.147
CAGCCUAUCUUUGUCCAGATT against COX10 | inactive: 0.339
ACGAGUACAUCAACGAGUATT against ABCA2 | active: -1.18
CAAUCACGGUUGUGGGUGATT against PRPSAP2 | inactive: 0.329
GAAAAAGGGUUUUACUACATT against TNFSF10 | inactive: 0
GGUAAUCUCUGGGAUGUGATT against ESPL1 | inactive: 0.871

A different layout for part of the listing above.
Sequence	median seed-adjusted z-score
GGAUCUCAUGAAAAAGUUUTT against CBR3	inactive: 0.057
GCGUCGUGGUCAUGAACAATT against PIP5K1C	inactive: -0.13
UCAACACCGUCUACAUUUATT against SVOPL	inactive: 0.439
GGAGACUCAUUGCAAGAUUTT against CNKSR2	inactive: -0.0536
GGGCAGUCUUUGCACAUCATT against IKBKB	inactive: 0.0896
GGAAUUCGACUGGAACAUUTT against NUF2	inactive: -0.658
CCAUGACAAUCAACGAGGATT against AMY2A	inactive: -0.266
GAGCAAAGCUGAACGUGAATT against UST	inactive: 0.265
GAACCAACUCGGCCUCUAUTT against HYAL3	inactive: 0
GGUAUUUGAUAGCAGUUGATT against ADAL	inactive: 0.145
GGAUGAUAGACCUACUGGATT against INO80	inactive: 0.0546
AGAAGAACCCGAACAAAGATT against EN2	inactive: 0.319
UGAGCGAGUUGGUCAAGAUTT against MAP1LC3A	inactive: 0
AAAUCGAUCAGAUCAACAATT against CDC2L1	active: -1.14
CCUGCAGAAUUAUAUCUUATT against TXNDC13	inactive: 0.365
GGUAAUCUCUGGGAUGUGATT against ESPL1	inactive: 0.871

Later entries.

Sequence | median seed-adjusted z-score
CCCGAACCCUGGUUCUUCATT against LCK | inactive: 0.676
AGGCAUUCGUCCCUACAAATT against OVOL2 | inactive: 0.654
CCAGAGAGAUGGAUUGUCATT against ARNT2 | inactive: -0.244
GGGACAAGUUCGUCAUCUUTT against CRYAA | active: -1.03
GGAUCACGCUAGCUGUCUATT against OXTR | inactive: -0.557
CAGGACCAAUGGUCAAGAATT against CARD11 | inactive: 0.22
GAAAGGAUUUGAUAAUGCATT against FGD4 | inactive: -0.0017
GCAUUACAGUCUGAAUUGATT against PTPDC1 | inactive: -0.191
AAGCAGUGAUGUCAACUUUTT against RNASE12 | inactive: -0.16
GCUCCAACGGCUGAUGAAATT against GPR146 | inactive: 0.405
CAAGACUGCUGAUGAGUUUTT against HSD17B3 | inactive: 0.734
CAUUGUCUAUCAUCGCAAATT against NEB | inactive: 0.0485
GCCCGACUCUCUAAUGGAATT against PRKD3 | inactive: -0.906
GAAAAGGUUUUGUAGAGUUTT against PSPC1 | inactive: 0.0612
GUUUAUUUCGUACACUAAATT against KTI12 | inactive: 0.0814
CAGCCUUACCUGAAGGACATT against PHYHIP | inactive: 0.18
ACGUAGGUGCUUUAAGGAUTT against SHOX2 | inactive: -0.238
GUUCGAGUCUUACUGGUCATT against ZNF790 | inactive: 0.245
GACGAUUACUUCACAAAGATT against KCNJ16 | inactive: -0.705
AAAGAGAACUGGUAUUCAATT against EIF1AX | inactive: 0.878
CGGUGAAUUUCAUGCCGAATT against SYNM | inactive: 0.104
GCAUCAUGGAUGGAUCCGATT against ENTPD5 | inactive: -0.355
CUAUGGACGCAAUCAUUUATT against ATOH7 | inactive: 0.135
